PubChem BioAssay AID1259254 – NCATS – 2017
Shown is a random part of about 59,000 reagents tested. About 1,550 of all reagents (2.6%) count as active. 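G2 share is only a proxy for re-replication; each gene was hit by three separate siRNAs, and active genes were retested.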 Further read-outs or replicates are left out here. The record does not give: the amount of reagent.

Assay: 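Finding genes that stop cells copying their DNA twice in one cycle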 (primary screen)
Cell system: human HCT116 colorectal cancer cells
Knock-down reagent: single siRNA against human genes
Time to read-out: 3 days
Measured: 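Nuclei stained with Hoechst and imaged; cell-cycle phase assigned by DNA content; G2 share scaled per plate, non-targeting siRNA 0%, GMNN siRNA 100%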
Reading the numbers: G2 robust z-score: higher = more G2 cells, more excess DNA replication
Active means: 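Active siRNAs have a G2 robust z of 5 or more median absolute deviations over the median, which in these data means about 38% or higher of GMNN control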

no.	target gene	PubChem SID	G2 robust z-score	activity call
1	OR2AG2	SID160764097	2.63	inactive
2	OR2AG2	SID160764098	0.263	inactive
3	OR2AG2	SID160764099	0.345	inactive
4	ST8SIA5	SID160739268	1.4	inactive
5	ST8SIA5	SID160739270	0.772	inactive
6	ST8SIA5	SID160739271	1.22	inactive
7	BEGAIN	SID160746375	-0.667	inactive
8	BEGAIN	SID160746376	-0.605	inactive
9	BEGAIN	SID160746377	0.183	inactive
10	NFS1	SID160721361	1.32	inactive
11	NFS1	SID160721362	-0.461	inactive
12	NFS1	SID160721363	0.639	inactive
13	LRP4	SID160776729	4.34	inactive
14	LRP4	SID160776730	7.12	active
15	LRP4	SID160776731	3.62	inactive
16	LINC01220	SID160774043	0.425	inactive
17	LINC01220	SID160774044	0.0383	inactive
18	LINC01220	SID160774045	-0.344	inactive
19	TMEM39A	SID160733595	0.0321	inactive
20	TMEM39A	SID160743357	3.89	inactive
21	TMEM39A	SID160743358	0.453	inactive
22	RBMX	SID160730974	1.19	inactive
23	RBMX	SID160738712	1.26	inactive
24	RBMX	SID160738713	-0.282	inactive
25	CDH26	SID160747066	-0.862	inactive
26	CDH26	SID160747067	0.24	inactive
27	CDH26	SID160747068	-0.874	inactive
28	COX8C	SID160731110	2.04	inactive
29	COX8C	SID160731111	2.93	inactive
30	COX8C	SID160764579	0.0601	inactive
31	NEDD8	SID160733458	4.93	inactive
32	NEDD8	SID160777939	7.04	active
33	NEDD8	SID160777940	8.02	active
34	ZNF286B	SID160734507	0.688	inactive
35	ZNF286B	SID160772611	1.2	inactive
36	ZNF286B	SID160772612	-0.562	inactive
37	ANXA2	SID160717751	0.119	inactive
38	ANXA2	SID160717761	0.821	inactive
39	ANXA2	SID160717772	-0.525	inactive
40	AKT1S1	SID160752187	-0.0117	inactive
41	AKT1S1	SID160752188	0.446	inactive
42	AKT1S1	SID160752189	0.0755	inactive
43	RELN	SID160715106	0.479	inactive
44	RELN	SID160715107	0.351	inactive
45	RELN	SID160715108	-0.349	inactive
46	VN1R4	SID160763914	0.764	inactive
47	VN1R4	SID160763915	0.335	inactive
48	VN1R4	SID160763916	-0.00234	inactive

4 neighbouring entries already listed, quoted:
no.	target gene	PubChem SID	G2 robust z-score	activity call
45	RELN	SID160715108	-0.349	inactive
46	VN1R4	SID160763914	0.764	inactive
47	VN1R4	SID160763915	0.335	inactive
48	VN1R4	SID160763916	-0.00234	inactive
